Source: article doi:10.1101/2020.10.06.327742 (bioRxiv, 2020)
Results are given in words; binding and its absence hold for the method and conditions named.

Biological target: T1, FITC-labelled ACE2 peptide with the predicted PTB binding motif (FITC-…-NH2) (human)
T1 sequence (peptide, FITC on the N-terminus; C-terminal amide (NH2)): SKGENNPGFQNT
Assay: fluorescence polarisation

## DOK1 PTB domain (domain or fragment)
  binding: no binding
